Data as given in patent US9790180B2, “Piperidine derivatives as HDAC1/2 inhibitors” (Acetylon Pharmaceuticals, Inc., priority 2014, dated 2017).

Protein sequences, listed by entry. Tags and fused reporters are not part of them. Residues count along the entry.
UniProt O15379, whole entry: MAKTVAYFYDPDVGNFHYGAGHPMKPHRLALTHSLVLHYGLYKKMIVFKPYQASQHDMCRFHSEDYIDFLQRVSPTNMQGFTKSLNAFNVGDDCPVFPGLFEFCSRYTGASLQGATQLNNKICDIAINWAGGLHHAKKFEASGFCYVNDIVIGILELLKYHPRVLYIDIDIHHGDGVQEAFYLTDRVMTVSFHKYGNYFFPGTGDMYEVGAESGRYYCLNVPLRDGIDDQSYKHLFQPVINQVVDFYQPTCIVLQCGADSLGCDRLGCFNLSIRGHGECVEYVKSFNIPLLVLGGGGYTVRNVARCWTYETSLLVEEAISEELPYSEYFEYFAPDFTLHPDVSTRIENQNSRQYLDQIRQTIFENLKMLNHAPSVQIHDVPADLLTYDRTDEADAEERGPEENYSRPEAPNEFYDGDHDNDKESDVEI
UniProt Q92769, whole entry: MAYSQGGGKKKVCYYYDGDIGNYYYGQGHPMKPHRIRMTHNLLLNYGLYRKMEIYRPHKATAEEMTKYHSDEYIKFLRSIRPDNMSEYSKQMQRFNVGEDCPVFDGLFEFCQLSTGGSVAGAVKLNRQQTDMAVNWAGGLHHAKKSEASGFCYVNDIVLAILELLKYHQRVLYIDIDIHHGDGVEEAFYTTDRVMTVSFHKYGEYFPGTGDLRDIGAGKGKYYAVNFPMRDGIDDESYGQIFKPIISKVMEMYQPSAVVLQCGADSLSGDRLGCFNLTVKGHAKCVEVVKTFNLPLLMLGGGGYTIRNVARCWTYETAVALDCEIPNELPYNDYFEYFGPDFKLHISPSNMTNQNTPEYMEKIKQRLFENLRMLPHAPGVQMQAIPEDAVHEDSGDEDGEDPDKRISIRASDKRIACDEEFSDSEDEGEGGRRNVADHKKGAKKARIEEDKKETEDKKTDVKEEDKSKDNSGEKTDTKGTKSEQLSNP
UniProt Q12809, whole entry: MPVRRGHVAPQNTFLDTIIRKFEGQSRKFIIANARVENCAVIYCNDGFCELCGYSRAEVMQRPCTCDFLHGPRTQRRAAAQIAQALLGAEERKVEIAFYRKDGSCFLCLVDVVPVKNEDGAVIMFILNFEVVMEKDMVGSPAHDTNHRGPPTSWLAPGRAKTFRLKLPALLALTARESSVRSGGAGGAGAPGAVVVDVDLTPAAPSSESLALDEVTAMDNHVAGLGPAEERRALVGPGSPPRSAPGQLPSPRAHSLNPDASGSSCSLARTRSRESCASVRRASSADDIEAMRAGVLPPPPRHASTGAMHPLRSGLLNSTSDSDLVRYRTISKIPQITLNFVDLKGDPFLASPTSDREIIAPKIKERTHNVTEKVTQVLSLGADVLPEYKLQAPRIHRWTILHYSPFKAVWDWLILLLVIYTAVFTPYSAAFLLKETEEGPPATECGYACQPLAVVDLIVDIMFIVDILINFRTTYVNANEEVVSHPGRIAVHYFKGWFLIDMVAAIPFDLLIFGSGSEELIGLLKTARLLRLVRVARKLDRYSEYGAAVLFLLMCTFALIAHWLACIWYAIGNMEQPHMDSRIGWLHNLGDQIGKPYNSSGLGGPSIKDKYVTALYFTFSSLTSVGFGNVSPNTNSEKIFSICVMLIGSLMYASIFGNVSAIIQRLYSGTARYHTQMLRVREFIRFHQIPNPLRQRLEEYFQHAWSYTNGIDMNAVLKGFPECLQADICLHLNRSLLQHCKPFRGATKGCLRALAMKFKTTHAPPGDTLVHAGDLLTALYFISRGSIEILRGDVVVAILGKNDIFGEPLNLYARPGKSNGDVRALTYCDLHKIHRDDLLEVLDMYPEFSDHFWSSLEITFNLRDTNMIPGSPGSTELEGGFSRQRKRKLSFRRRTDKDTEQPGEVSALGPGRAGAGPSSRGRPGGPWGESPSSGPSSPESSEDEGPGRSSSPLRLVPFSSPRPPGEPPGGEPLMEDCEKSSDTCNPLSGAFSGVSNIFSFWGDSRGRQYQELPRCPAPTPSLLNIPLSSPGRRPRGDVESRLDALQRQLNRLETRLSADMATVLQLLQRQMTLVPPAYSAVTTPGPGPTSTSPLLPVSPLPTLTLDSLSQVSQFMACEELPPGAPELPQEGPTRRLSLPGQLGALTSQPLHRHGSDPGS
UniProt Q13547, whole entry: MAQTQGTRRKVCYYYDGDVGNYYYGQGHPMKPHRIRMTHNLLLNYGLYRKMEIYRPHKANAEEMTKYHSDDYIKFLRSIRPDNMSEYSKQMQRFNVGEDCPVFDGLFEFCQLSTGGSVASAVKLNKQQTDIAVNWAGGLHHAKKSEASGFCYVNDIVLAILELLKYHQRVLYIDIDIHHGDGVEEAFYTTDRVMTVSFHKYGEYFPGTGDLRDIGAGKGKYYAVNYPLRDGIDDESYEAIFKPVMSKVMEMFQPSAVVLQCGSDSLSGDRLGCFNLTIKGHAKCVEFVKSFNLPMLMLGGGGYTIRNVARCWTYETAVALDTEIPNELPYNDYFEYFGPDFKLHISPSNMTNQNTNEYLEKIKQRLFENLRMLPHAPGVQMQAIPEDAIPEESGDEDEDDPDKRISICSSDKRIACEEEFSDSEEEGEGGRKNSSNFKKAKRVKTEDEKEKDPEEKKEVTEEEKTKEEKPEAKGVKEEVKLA
UniProt Q9Y618, 395-489 partner limits assumed: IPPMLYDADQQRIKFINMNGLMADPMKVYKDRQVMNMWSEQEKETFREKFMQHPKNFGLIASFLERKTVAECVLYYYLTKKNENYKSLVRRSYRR

Legend:
[1] = system: CYP1A2, CYP2C9, CYP2C19, CYP3A4, CYP2D6; assay: Cyp inhibition in human liver microsomes; conditions: In vitro tox
Procedure: For Cyp inhibition, human live microsomes from BD Gentest were incubated with Compound 003 (10, 3.33, 1.11, 0.37, 0.12, 0.04, 0.01 μM) and substrate (CYP1A2: Phenacetin at 30 μM; CYP2C9: Diclofenac at 10 μM; CYP2C19: S-Mephenytoin at 35 μM; CYP3A4: Midazolam at 5 μM and Testosterone at 80 μM; CYP2D6: Bufuralol at 10 μM) for the following incubation times: CYP1A2, 2C9, 2D6: 10 minutes, 37° C.; CYP2C19: 45 minutes, 37° C.; CYP3A4: 5 minutes, 37° C. Substrate conversion was measured by liquid chromatography/mass spectrometry/mass spectrometry (LC/MS/MS). Inhibition was calculated by curve fitting in Graph Pad Prism.

HDAC3 = HDAC3 (Homo sapiens (Human), UniProt O15379); assay: HDAC enzyme assay, HDAC3; conditions: read-out: IC50 (nM) HDAC3; 24 hours pre-incubation with enzyme
[2] = Rat cassette pharmacokinetics
Procedure: Male SD rats were fasted overnight. Compounds of the invention were dissolved in dimethyl acetamide at 10 times the final concentration, then Solutol HS 15 (BASF) was added to a final concentration of 10%. Finally 80% saline was added and vortexed to achieve a clear solution. For the IV dosing three animals were injected via the foot dorsal vein with 1 mg/kg compound. For the PO dosing 5 mg/kg of compound was delivered by oral gavage. Blood was collected via the tail vein into K2EDTA tubes at 5 minutes, 15 minutes, 30 minutes, 1 hour, 2 hours, 4 hours, 8 hours and 24 hours after dosing. The blood was centrifuged at 2000 g for 5 minutes at 4° C. to obtain plasma. The plasma was extracted with acetonitrile and the level of compound was analyzed by LC/MS/MS. The level of compound in plasma was calculated from a standard curve in rat plasma. The IV clearance and area under the curve were calculated using WinNonLin software. The dose adjusted area under the curve for the IV and oral dosing were used to calculate the oral bioavailability.

Solubility = type: physicochemical
HDAC2 = HDAC2 (Homo sapiens (Human), UniProt Q92769); assay: HDAC enzyme assay, HDAC2; conditions: read-out: IC50 (nM) HDAC2; 24 hours pre-incubation with enzyme
hERG channel = hERG channel (Homo sapiens (Human), UniProt Q12809); assay: hERG assay (QPatch, CHO cell line expressing hERG channels); conditions: In vitro tox
Procedure: For hERG assays, a CHO cell line stably transfected with hERG cDNA and expressing hERG channels were seeded into a QPatch plate (Sophion) at a density of 3-8×10^6 cells/ml. The cells were voltage clamped at a holding potential of −80 mV. The hERG current was activated by depolarizing at +20 mV for 5 sec, after which the current was taken back to −50 mV for 5 sec to remove the inactivation and observe the deactivating tail current. The maximum amount of tail current size was used to determine hERG current amplitude. Six doses (30, 10, 3, 1, 0.3 and 0.1 μM) of Compound 003 were chosen to obtain fitting curves and IC50. Data were analyzed using Assay Software provided by Sophion and Graphpad Prism.

HDAC1 = HDAC1 (Homo sapiens (Human), UniProt Q13547); assay: HDAC enzyme assay, HDAC1; conditions: read-out: IC50 (nM) HDAC1; 24 hours pre-incubation with enzyme
[3] = rat cassette dosing, 5 mg/kg PO

Row | Structure (SMILES) | Cyp [1] [µM] | IC50 (HDAC3) [nM] | PO AUC [2, 3] [ng·h/mL] | PO Cmax [2, 3] [ng/mL] | PO T½ [2, 3] [h] | IV Clr. ([2]; rat cassette dosing, IV 1 mg/kg) [mL/min/kg] | F % ([2]; rat, oral AUC to IV AUC, dose adjusted) [%] | Solubility (Solubility) [µM] | IC50 (HDAC2) [nM] | hERG (hERG channel) [µM] | IC50 (HDAC1) [nM]
1 | CC1(Nc2ccc(C(=O)Nc3cc(-c4cccs4)ccc3N)cc2)CCN(C(=O)N2CCOCC2)CC1 | >10 | 286 | 15941 | 1497 | 7.6 | 9.5 | 209 | 12 (≈ 6.24 µg/mL) | 21 | 12 | –
2 | Nc1ccc(-c2cccs2)cc1NC(=O)c1ccc(NC2CCN(C(=O)N3CCOCC3)CC2)cc1 [Compound 020] | – | 43 | – | – | – | – | – | – | 4.2 | – | 0.9

Converted amounts (≈) assume the structure as drawn. Structures were worked out from names or drawings and are uncertain.
